Test results reported in paper PMC10462713.

The chains behind the UniProt entries cited, without tags or fusion partners.
UniProt P49327: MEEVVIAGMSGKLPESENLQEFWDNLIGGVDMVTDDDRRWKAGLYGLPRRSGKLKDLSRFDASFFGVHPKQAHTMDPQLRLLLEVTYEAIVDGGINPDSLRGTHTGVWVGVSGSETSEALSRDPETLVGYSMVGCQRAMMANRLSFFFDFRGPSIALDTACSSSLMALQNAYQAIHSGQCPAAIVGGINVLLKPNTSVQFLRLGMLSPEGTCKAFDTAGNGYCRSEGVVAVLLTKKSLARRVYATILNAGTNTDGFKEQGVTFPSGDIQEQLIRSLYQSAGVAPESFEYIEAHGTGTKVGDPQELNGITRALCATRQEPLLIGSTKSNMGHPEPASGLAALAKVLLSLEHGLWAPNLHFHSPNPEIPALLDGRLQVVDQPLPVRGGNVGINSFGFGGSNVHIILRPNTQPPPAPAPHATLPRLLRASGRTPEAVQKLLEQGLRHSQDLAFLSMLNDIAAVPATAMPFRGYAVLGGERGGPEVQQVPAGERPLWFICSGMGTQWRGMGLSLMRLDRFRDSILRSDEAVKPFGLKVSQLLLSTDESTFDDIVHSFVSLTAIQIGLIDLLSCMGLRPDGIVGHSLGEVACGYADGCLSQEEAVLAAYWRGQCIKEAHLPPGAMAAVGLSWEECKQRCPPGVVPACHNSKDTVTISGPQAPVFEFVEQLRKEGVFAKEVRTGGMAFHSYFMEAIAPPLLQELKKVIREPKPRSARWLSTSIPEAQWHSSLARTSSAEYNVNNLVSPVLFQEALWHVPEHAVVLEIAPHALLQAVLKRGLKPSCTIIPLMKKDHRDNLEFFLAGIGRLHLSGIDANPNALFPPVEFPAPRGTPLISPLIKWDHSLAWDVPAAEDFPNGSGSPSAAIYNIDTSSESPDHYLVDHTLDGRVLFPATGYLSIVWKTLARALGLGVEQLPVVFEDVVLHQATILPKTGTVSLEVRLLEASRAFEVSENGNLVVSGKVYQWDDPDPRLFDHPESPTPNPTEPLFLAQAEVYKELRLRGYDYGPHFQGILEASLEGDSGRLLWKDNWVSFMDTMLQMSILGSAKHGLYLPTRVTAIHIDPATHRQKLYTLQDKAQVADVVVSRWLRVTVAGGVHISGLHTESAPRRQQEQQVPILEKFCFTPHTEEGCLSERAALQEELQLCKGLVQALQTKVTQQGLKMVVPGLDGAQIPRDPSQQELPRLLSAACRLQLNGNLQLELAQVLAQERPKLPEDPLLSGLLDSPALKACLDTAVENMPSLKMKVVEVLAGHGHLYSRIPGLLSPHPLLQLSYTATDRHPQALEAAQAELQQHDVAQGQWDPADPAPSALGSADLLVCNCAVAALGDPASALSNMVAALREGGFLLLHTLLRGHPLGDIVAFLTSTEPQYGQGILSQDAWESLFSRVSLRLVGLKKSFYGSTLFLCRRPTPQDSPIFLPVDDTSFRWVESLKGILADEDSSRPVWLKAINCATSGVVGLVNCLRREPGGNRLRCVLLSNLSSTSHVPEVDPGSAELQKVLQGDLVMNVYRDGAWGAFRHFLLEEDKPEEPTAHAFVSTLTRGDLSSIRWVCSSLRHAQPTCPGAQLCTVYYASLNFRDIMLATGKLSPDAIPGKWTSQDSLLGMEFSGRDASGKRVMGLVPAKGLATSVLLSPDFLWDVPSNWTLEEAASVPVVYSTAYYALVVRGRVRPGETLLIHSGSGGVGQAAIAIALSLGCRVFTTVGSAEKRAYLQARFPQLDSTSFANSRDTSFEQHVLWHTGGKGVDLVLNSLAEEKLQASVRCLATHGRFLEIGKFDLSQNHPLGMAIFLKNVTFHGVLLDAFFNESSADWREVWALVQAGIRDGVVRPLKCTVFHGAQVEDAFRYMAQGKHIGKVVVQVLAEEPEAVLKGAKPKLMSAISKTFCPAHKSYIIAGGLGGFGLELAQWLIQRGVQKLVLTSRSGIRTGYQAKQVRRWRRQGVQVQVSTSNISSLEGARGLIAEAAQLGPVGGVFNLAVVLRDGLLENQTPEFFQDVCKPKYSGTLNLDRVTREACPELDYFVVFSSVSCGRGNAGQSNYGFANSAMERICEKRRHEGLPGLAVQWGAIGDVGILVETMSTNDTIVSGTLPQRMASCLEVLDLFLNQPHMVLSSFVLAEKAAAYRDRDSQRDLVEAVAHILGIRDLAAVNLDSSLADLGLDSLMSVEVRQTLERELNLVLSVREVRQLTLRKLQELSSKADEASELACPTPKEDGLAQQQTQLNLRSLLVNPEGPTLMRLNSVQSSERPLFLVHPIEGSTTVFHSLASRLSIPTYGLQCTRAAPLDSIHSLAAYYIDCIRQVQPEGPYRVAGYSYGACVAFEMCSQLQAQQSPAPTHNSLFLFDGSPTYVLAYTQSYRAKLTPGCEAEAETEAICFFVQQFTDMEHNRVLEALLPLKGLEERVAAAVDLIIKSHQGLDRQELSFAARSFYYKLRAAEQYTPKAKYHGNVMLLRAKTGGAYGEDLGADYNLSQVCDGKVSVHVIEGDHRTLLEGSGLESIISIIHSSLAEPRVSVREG
UniProt P49792: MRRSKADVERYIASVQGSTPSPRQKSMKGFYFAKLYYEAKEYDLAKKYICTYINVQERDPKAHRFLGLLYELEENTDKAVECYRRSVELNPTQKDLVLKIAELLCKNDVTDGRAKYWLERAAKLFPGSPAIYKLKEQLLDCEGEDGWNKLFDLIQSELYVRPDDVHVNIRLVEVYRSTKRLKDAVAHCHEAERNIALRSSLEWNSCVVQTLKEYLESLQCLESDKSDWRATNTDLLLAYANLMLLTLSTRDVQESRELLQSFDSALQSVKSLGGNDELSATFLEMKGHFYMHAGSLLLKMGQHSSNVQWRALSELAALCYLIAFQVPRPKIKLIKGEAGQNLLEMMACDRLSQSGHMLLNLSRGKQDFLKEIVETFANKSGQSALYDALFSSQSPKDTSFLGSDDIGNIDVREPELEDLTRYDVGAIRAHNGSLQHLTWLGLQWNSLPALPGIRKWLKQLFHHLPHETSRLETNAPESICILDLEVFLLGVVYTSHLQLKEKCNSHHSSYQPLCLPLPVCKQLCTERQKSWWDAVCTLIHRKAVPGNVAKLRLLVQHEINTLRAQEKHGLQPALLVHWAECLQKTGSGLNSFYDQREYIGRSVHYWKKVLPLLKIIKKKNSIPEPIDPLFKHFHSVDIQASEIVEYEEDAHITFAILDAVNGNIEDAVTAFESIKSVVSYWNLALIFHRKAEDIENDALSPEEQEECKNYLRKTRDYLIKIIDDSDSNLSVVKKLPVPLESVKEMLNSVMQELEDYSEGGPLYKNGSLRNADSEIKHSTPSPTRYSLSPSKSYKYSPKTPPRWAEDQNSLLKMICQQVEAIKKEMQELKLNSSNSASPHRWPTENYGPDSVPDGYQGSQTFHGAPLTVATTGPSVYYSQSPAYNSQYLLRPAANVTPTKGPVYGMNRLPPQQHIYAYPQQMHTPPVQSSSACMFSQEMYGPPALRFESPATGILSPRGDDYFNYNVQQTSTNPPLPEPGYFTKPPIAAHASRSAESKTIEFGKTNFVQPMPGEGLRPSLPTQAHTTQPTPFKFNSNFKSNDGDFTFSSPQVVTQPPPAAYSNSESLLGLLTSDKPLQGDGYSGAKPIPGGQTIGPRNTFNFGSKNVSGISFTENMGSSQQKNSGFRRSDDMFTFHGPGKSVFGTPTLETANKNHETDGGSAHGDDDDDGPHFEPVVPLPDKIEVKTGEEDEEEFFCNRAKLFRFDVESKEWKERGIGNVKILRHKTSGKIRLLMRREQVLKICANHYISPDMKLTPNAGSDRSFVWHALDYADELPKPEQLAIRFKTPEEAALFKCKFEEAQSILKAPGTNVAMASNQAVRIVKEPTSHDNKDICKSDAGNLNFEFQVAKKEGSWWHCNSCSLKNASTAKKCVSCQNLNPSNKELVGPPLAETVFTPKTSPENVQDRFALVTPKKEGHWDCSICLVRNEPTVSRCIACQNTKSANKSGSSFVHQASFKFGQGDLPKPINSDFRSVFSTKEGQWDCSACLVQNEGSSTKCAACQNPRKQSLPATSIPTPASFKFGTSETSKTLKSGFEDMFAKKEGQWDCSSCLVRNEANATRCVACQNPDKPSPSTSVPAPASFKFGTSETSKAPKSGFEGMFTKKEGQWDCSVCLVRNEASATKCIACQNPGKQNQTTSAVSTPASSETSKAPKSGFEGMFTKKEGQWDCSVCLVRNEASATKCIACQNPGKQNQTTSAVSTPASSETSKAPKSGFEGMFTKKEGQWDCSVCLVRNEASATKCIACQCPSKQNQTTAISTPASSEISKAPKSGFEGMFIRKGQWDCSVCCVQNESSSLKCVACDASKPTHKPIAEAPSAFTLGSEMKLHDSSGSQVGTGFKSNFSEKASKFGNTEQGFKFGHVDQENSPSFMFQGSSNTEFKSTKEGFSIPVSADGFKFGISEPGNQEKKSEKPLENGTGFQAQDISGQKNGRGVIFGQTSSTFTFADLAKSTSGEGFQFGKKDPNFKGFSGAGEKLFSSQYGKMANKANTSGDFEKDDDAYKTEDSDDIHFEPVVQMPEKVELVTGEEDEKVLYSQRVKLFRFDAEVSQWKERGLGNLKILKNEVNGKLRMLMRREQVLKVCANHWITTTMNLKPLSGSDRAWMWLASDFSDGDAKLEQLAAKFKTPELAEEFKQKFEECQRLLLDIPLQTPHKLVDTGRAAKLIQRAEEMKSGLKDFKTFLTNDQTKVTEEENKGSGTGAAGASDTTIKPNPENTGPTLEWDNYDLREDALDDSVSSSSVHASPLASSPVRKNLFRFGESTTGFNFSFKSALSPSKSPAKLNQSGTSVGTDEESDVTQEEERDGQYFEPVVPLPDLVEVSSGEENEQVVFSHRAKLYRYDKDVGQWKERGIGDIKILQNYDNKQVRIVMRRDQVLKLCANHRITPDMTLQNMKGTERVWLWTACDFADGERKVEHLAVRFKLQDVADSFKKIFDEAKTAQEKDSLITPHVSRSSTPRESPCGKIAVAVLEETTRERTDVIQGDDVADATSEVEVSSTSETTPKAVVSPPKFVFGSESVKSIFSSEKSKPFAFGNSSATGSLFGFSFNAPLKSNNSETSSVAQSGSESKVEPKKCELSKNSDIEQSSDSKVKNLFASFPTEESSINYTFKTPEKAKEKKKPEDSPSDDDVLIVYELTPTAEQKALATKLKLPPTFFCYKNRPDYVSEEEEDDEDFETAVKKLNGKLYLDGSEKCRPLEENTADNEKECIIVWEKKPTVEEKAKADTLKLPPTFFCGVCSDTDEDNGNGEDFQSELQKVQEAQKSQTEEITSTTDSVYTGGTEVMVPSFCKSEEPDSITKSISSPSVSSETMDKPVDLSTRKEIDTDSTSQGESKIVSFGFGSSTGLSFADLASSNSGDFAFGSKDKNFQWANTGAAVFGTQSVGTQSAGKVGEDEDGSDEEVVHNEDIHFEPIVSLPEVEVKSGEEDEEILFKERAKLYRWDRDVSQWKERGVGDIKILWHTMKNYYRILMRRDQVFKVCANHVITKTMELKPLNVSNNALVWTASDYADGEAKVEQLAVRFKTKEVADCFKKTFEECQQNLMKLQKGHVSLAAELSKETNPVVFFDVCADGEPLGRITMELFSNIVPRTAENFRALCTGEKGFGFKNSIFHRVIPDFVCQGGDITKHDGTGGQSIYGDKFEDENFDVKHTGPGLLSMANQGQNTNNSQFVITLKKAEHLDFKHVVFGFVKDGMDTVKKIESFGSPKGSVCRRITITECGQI

Molecular target: Flag-FASN (fatty acid synthase, wild type) (human) (UniProt P49327)
Experiment: affinity purification with mass spectrometry; Flag-FASN MS; hits intersected with the CircRREB1 pulldown MS

binding: binds
Substance: E3 SUMO-protein ligase RanBP2 (from UniProt P49792 1-3224) (enzyme)

These are yes or no findings as the source states them, for the method shown. In cells and extracts the contact can be indirect. These calls come from enrichment with a bait or labelling near it, and not all partners need be listed.
